US8258118B2, “4-pyridinone compounds and their use for cancer” (Bristol-Myers Squibb Company, priority 2008, dated 2012)
Some results were stated once for a whole list of compounds, not compound by compound.

Test system: GTL-16 gastric carcinoma xenografts
Test: In vivo efficacy, GTL-16 human gastric tumor xenograft model
Details: for at least one tumor doubling time; GTL-16 gastric carcinoma model
Experimental: N-(4-(2-Amino-3-chloropyridin-4-yloxy)-3-fluorophenyl)-5-(4-fluorophenyl)-4-oxo-1,4-dihydropyridine-3-carboxamide (Example 1) and (3-(4-(2-amino-3-chloropyridin-4-yloxy)-3-fluorophenylcarbamoyl)-5-(4-fluorophenyl)-4-oxopyridin-1(4H)-yl)methyl dihydrogen phosphate (Example 2) were evaluated for in vivo efficacy against the GTL-16 human gastric tumor xenograft model. Example 2 is a prodrug of Example 1.

## Nc1nccc(Oc2ccc(NC(=O)c3cn(COP(=O)(O)O)cc(-c4ccc(F)cc4)c3=O)cc2F)c1Cl [Example 2, (3-(4-(2-Amino-3-chloropyridin-4-yloxy)-3-fluorophenylcarbamoyl)-5-(4-fluorophenyl)-4-oxopyridin-1(4H)-yl)methyl dihydrogen phosphate]
  tumor growth inhibition (TGI): greater than 50%
